Data as given in PubChem BioAssay AID686937 (Drosophila RNAi Screening Center, 2013)
In all, the deposit lists about 23,000 reagents; this is an unselected part of those that have a named target and a result. 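Reduced-secretion tags in replicate 1 do not always agree with the z-scores; no criterion for assigning the tags was given.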 The numbers tell different reagents against one gene apart. Further read-outs or replicates are left out here. The record does not give: the amount of reagent.

- Test: 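Genes whose loss weakens secretory pathway function in fly cells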 (primary screen)
- Cell system: Drosophila S2 cells expressing secreted horseradish peroxidase
- Reagent: long dsRNA against Drosophila genes
- Time to read-out: about 5.5 days (5 days dsRNA, then 12 h reporter induction)
- Challenge: reporter expression induced after 5 days of dsRNA, read 12 h later; inducer not stated
- Detection: 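After 5 days of dsRNA and 12 h of reporter induction, medium peroxidase read by chemiluminescence and scored as per-plate z-score; higher values mean more reporter released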
- Scale: z-score: higher = more reporter secreted into medium

For CG13216, how do the results read?
z-score, replicate 1: 0.27

With Or85d (Odorant receptor 85d), how do the results read?
z-score, replicate 1: 0.13

What is on record for CG33655?
z-score, replicate 1: -0.26

For Roc1a (Regulator of cullins 1a), what was measured?
z-score, replicate 1: -3.43; phenotype, replicate 1: reduced secretion

With CG6409 #1, how do the results read?
z-score, replicate 1: -0.28

With CG6409 #2, what was measured?
z-score, replicate 1: 1.24

With CG11899, what was measured?
z-score, replicate 1: 0.38

Sorted by “z-score, replicate 1” (low to high): 2 of the entries above
Roc1a (Regulator of cullins 1a): z-score, replicate 1 = -3.43; phenotype, replicate 1 = reduced secretion
CG33655: z-score, replicate 1 = -0.26

The list goes on:
For dj (don juan), how do the results read?
z-score, replicate 1: 0.44

With Obp22a (Odorant-binding protein 22a), what was measured?
z-score, replicate 1: 0.47

With CG11307, how do the results read?
z-score, replicate 1: 0.39

What did the screen give for CG33474?
z-score, replicate 1: 0.03

What did the screen give for Ir94d (Ionotropic receptor 94d)?
z-score, replicate 1: 0.21

For CG10038, how do the results read?
z-score, replicate 1: 0.33

For CG11373, what does the deposit list?
z-score, replicate 1: 0.34

What is on record for Eig71Ee (Ecdysone-induced gene 71Ee)?
z-score, replicate 1: 0.69

What is on record for Nepl9 (Neprilysin-like 9)?
z-score, replicate 1: 0.41
